Assay results published in PubChem BioAssay AID540363 (National Center for Advancing Translational Sciences (NCATS), 2011).
The inconclusive results got no clear call from the source; some entries with a clear call stand among them for comparison. Potencies of inconclusive entries are doubtful fits and often do not repeat. Calls of active or inactive are those of the source. The call rests on the fitted dose curve; in most records, active means well fitted cell-killing curve with a large enough effect; inconclusive means small, poorly fitted or top-dose-only effect; inactive means flat fitted curve, though single readings scatter.

Experiment: PC3M Cytotoxicity Assay for Compounds that Inhibit the Perinuclear Compartment: Chemistry Optimization Followup
Details: PC3M-GFP viability, ATPLite luminescence, 24 h; series mostly up to 46.1 µM
Excerpt: The perinucleolar compartment (PNC) is a non-membrane-bound nuclear subdomain that is associated with but structurally distinct from the nucleolus. The PNC is a heritable trait, in which the number of PNCs per cell in daughter cells often mimics that of their mother cells. The PNC is heterogeneous in shape, is stable through interphase, disassembles during mitosis, and reassembles in early G1. The PNC is concentrated with newly synthesized RNA polymerase III (pol III) RNAs (MRP RNA, RNAse P H1 RNA, hY RNAs[hY1, 2, 5], Alu RNA, and SRP [7SL] RNA) and RNA binding proteins (nucleolin, PTB, CUG-BP, KSRP, Raver1, Raver2, and Rod). […] Extensive in vitro studies have shown that the PNC is unique to tumor cells and preferentially forms in tumor cells derived from solid tissues. Examination of cancer cell lines from various origins and malignant capacities has shown that PNC prevalence correlates with the malignancy of tumors and has the potential to be developed as a pan-cancer prognostic marker. […] Although the PNC is associated with a DNA locus and a handful of components have been identified, much remains to be investigated regarding the structure and function of the PNC and its mechanistic link to cancer. We have previously shown that PNC prevalence reduction is a valid strategy to identify compounds that can be used to study the structure and function of the PNC. It is necessary, however, to create a screening platform that is able to test a large number of compounds in an automated fashion. Here we report the development and robustness of an automated whole-cell phenotypic image-based screening assay that is capable of identifying such compounds. We conducted a followup assay to measure the effect of the lead candidates on cell health by measuring ATP levels (ATPLite). The highly metastatic PC3M-GFP reporter cell line was used in this study. NIH Chemical Genomics Center [NCGC] NIH Molecular Libraries Probe Centers Network [MLPCN] MLPCN Grant: MH082371-01A2 Assay Submitter (PI): Sui Huang, Northwestern University, Feinberg School of Medicine, Cell and Molecular Biology, Chicago, Illinois.
1. Cells at a density of 75-90% confluency in T175 flasks were harvested using 7 ml TrypLE Express cell dissociation reagent. After dissociation (5 minutes room temperature incubation) 10 ml of complete media was added to the TrypLE/cell suspension. The liquid was transferred to a 50 ml Conical tube and cells were pelleted at 1000 RPM for 5 min. Supernatant was removed and cells were resuspended to a final density of 150-200 cells/ul in complete media. 2. Cells were plated in 5 ul volume (2000 cells/well) into 1536 well White solid bottom plates and allowed to recover and adhere at 37 C in a humidified 5% CO2 incubator for 4 hours. 3. After 4 hour incubation, compound libraries (23 nl of […] in columns 5-48) were transferred to the plates in duplicate using a 1536 well pintool. Camptothecin positive control (59 uM final) was added to column 2 and 1:3 dilutions of camptothecin was added to column 3. DMSO negative controls were present in columns 1 and 4. 4. After a 24 hour incubation in the 37 C incubator, all wells were treated with 3 ul of ATPLite reagent using a multidrop combi dispenser (ThermoFisher). Bubbles that formed during dispensing were removed by spinning the plates for 1 minutre at 1500 RPM on a table top centrifuge. 5. Luminescencent signal was detected on a Viewlux CCD based imager (PerkinElmer) with a clear filter and a 30 second integration time. The PC3M cell line stably expressing the PTB-GFP was provided by Sui Huang of Northwestern University. The media and cell culture reagents were purchased from Invitrogen (Carlsbad, CA), ATPLite came from PerkinElmer.
For `COc1ccc(Cn2c(-c3ccccc3)c(-c3ccccc3)c3c(=N)n(CC(OC)OC)cnc32)cc1`, the Potency was inconclusive: 12.6 µM [cytotoxic, partial curve, poor fit]. In the case of `COc1ccc(Cn2c(/N=C/NN3CCOCC3)c(C#N)c(-c3ccccc3)c2-c2ccccc2)cc1`, the Potency is reported as inconclusive: 25 µM [cytotoxic, single point]. In the case of `COc1ccc(Cn2c(-c3ccccc3)c(-c3ccccc3)c3c(=N)n(CCO)cnc32)cc1`, the Potency is reported as inconclusive: 35.3 µM [cytotoxic, partial curve]. For `COC(=O)c1cccc(Cn2cnc3c(c(-c4ccccc4)c(-c4ccccc4)n3CCc3ccccc3)c2=N)c1`, the Potency was inconclusive: 15.8 µM [cytotoxic, partial curve, poor fit]. With `CN(C(=O)c1cccs1)c1cccnc1` the Potency was “inactive”. With `COCCn1cnc2c(c(-c3ccccc3)c(-c3ccccc3)n2CCc2ccccc2)c1=N` the Potency was active: 15.8 µM. In the case of `N=c1c2c(-c3ccccc3)c(-c3ccccc3)n(Cc3ccccc3)c2ncn1C1CCN(Cc2ccccc2)CC1`, the Potency is reported as inconclusive: 25 µM [cytotoxic, single point]. In the case of `N=c1c2c(-c3ccccc3)c(-c3ccccc3)n(CCc3ccccc3)c2ncn1C1CCN(Cc2ccccc2)CC1`, the Potency is reported as inconclusive: 35.3 µM [cytotoxic, partial curve, poor fit].
